This is an account of results in the supplement of paper PMC4604168 (melanoma cell lines).

Some of the results follow. Many values rest on one well or one pass, so single values are uncertain.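 Cells were imaged in 1,536-well plates, and nuclei stained with an antibody against cleaved PARP were counted against all DNA-stained nuclei to give the apoptosis fraction. Screening doses were chosen to leave most cells alive, and resting and induced cleaved-PARP levels differ strongly between cell lines.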

This assay concerns WM3526. The experiment in a line: cleaved PARP positive nuclei fraction relative to DMSO control; melanoma cells; higher = more apoptosis. Conditions: library dose: low library concentration; 72 h.
As to `CS(=O)(=O)c1ccc(C(=O)Nc2ccc(Cl)c(-c3ccccn3)c2)c(Cl)c1` [vismodegib] + C#Cc1cccc(Nc2ncnc3cc(OCCOC)c(OCCOC)cc23)c1 [erlotinib] (first compound 1 µM, partner dose 0.8 µM), the “cleaved PARP positive nuclei fraction” value came to 88.8%.

Turning to `CN(c1ncccc1CNc1nc(Nc2ccc3c(c2)CC(=O)N3)ncc1C(F)(F)F)S(C)(=O)=O` + C#Cc1cccc(Nc2ncnc3cc(OCCOC)c(OCCOC)cc23)c1 [erlotinib] (first compound 0.08 µM, partner dose 0.8 µM), the “cleaved PARP positive nuclei fraction” value was 44.3%.

`CC1(C)CCC(c2ccc(Cl)cc2)=C(CN2CCN(c3ccc(C(=O)NS(=O)(=O)c4ccc(N[C@H](CCN5CCOCC5)CSc5ccccc5)c(S(=O)(=O)C(F)(F)F)c4)cc3)CC2)C1` + O=C(O)c1ccc2c(c1)nc(Nc1cccc(Cl)c1)c1ccncc12 [CX4945] (first compound 0.4 µM, partner dose 0.4 µM): the “cleaved PARP positive nuclei fraction” value amounted to 60.7%.

As for `COc1ccc(C2=N[C@@H](c3ccc(Cl)cc3)[C@@H](c3ccc(Cl)cc3)N2C(=O)N2CCNC(=O)C2)c(OC(C)C)c1` [Nutlin-3] + COc1cc2c(Oc3ccc4[nH]c(C)cc4c3F)ncnc2cc1OCCCN1CCCC1 [cediranib] (first compound 0.1 µM, partner dose 0.4 µM), the “cleaved PARP positive nuclei fraction” value was 61.2%.

For the compound `CC(=O)O[C@@]12CO[C@@H]1C[C@H](O)[C@@]1(C)C(=O)[C@H](O)C3=C(C)[C@@H](OC(=O)[C@H](O)[C@@H](NC(=O)OC(C)(C)C)c4ccccc4)C[C@@](O)([C@@H](OC(=O)c4ccccc4)[C@H]21)C3(C)C` [Docetaxel] + Cn1c(Nc2ccc(C(F)(F)F)cc2)nc2cc(Oc3ccnc(-c4ncc(C(F)(F)F)[nH]4)c3)ccc21 [CHIR265] (first compound 0.0001 µM, partner dose 0.08 µM), the “cleaved PARP positive nuclei fraction” value worked out at 310%.

Consider `CS(=O)(=O)c1ccc(C(=O)Nc2ccc(Cl)c(-c3ccccn3)c2)c(Cl)c1` [vismodegib] + Nc1ccn([C@@H]2O[C@H](CO)[C@@H](O)C2(F)F)c(=O)n1 [gemcitabine] (first compound 1 µM, partner dose 0.0004 µM), for which the “cleaved PARP positive nuclei fraction” value was found to be 82.6%.

Take `CCCCCCCCc1ccc(CCC(N)(CO)CO)cc1` [fingolimod] + CCN(CC)CCCCNc1ncc2cc(-c3cc(OC)cc(OC)c3)c(NC(=O)NC(C)(C)C)nc2n1 [PD173074] (first compound 2 µM, partner dose 0.1 µM): the “cleaved PARP positive nuclei fraction” value came out at 111%.

For the compound `COc1ccc(C2=N[C@@H](c3ccc(Cl)cc3)[C@@H](c3ccc(Cl)cc3)N2C(=O)N2CCNC(=O)C2)c(OC(C)C)c1` [Nutlin-3] + Nc1nc(F)nc2c1ncn2[C@@H]1O[C@H](CO)[C@@H](O)[C@@H]1O [fludarabine] (first compound 0.1 µM, partner dose 0.2 µM), the “cleaved PARP positive nuclei fraction” value was 177%.

Consider `NC(=O)c1ccc(N(C(N)=O)c2c(F)cccc2F)nc1-c1ccc(F)cc1F` + CS(=O)(=O)CCNCc1ccc(-c2ccc3ncnc(Nc4ccc(OCc5cccc(F)c5)c(Cl)c4)c3c2)o1 [lapatinib] (first compound 0.4 µM, partner dose 0.8 µM), for which the “cleaved PARP positive nuclei fraction” value was found to be 81%.

Consider `NC1(c2ccc(-c3nc4ccn5c(=O)[nH]nc5c4cc3-c3ccccc3)cc2)CCC1` + C=C(c1ccc(C(=O)O)cc1)c1cc2c(cc1C)C(C)(C)CCC2(C)C [Bexarotene] (first compound 0.4 µM, partner dose 2 µM), for which the “cleaved PARP positive nuclei fraction” value was 123%.

In the case of `Cn1cnc2c(F)c(Nc3ccc(Br)cc3Cl)c(C(=O)NOCCO)cc21` [selumetinib] + O=C(Nc1cccc(Cl)c1)Nc1ncc(CCNc2ncnc3ccsc23)s1 [SNS314] (first compound 0.015 µM, partner dose 0.0008 µM), the “cleaved PARP positive nuclei fraction” value was 128%.

For `Cn1sc(=O)n(Cc2ccccc2)c1=O` + CNC(=O)c1cc(Oc2ccc(NC(=O)Nc3ccc(Cl)c(C(F)(F)F)c3)cc2)ccn1 [sorafenib] (first compound 0.4 µM, partner dose 0.4 µM), the “cleaved PARP positive nuclei fraction” value came to 20.2%.

Turning to `NC(=O)c1ccc(N(C(N)=O)c2c(F)cccc2F)nc1-c1ccc(F)cc1F` + CC(C)C[C@H](NC(=O)[C@H](Cc1ccccc1)NC(=O)c1cnccn1)B(O)O [Bortezomib] (first compound 0.4 µM, partner dose 0.001 µM), the “cleaved PARP positive nuclei fraction” value was 52%.

For `NC(=O)c1ccc(N(C(N)=O)c2c(F)cccc2F)nc1-c1ccc(F)cc1F` + C[C@]1(O)C[C@@H](c2nc(-c3ccc4ccc(-c5ccccc5)nc4c3)c3c(N)nccn32)C1 [OSI906] (first compound 0.4 µM, partner dose 0.4 µM), the “cleaved PARP positive nuclei fraction” value came to 136%.

With `CS(=O)(=O)c1ccc(C(=O)Nc2ccc(Cl)c(-c3ccccn3)c2)c(Cl)c1` [vismodegib] + COCC[n+]1c2c(n(Cc3cnccn3)c1C)C(=O)c1ccccc1C2=O [YM155] (first compound 1 µM, partner dose 0.0004 µM), the “cleaved PARP positive nuclei fraction” value stood at 46.6%.

For the compound `Cn1sc(=O)n(Cc2ccccc2)c1=O` + Cn1cncc1[C@@](N)(c1ccc(Cl)cc1)c1ccc2c(c1)c(-c1cccc(Cl)c1)cc(=O)n2C [tipifarnib] (first compound 0.4 µM, partner dose 0.01 µM), the “cleaved PARP positive nuclei fraction” value came out at 75.9%.

`CCN(CC)CCNC(=O)c1c(C)[nH]c(/C=C2\C(=O)Nc3ccc(F)cc32)c1C` [sunitinib] + CC(C)(C)c1cnc(CSc2cnc(NC(=O)C3CCNCC3)s2)o1 [SNS-032] (first compound 0.4 µM, partner dose 0.01 µM): the “cleaved PARP positive nuclei fraction” value amounted to 32.7%.

As to `CC1(C)CCC(c2ccc(Cl)cc2)=C(CN2CCN(c3ccc(C(=O)NS(=O)(=O)c4ccc(N[C@H](CCN5CCOCC5)CSc5ccccc5)c(S(=O)(=O)C(F)(F)F)c4)cc3)CC2)C1` + C=C(c1ccc(C(=O)O)cc1)c1cc2c(cc1C)C(C)(C)CCC2(C)C [Bexarotene] (first compound 0.4 µM, partner dose 2 µM), the “cleaved PARP positive nuclei fraction” value was 273%.

Take `Cn1sc(=O)n(Cc2ccccc2)c1=O` + CCN(CC)CCCCNc1ncc2cc(-c3cc(OC)cc(OC)c3)c(NC(=O)NC(C)(C)C)nc2n1 [PD173074] (first compound 0.4 µM, partner dose 0.1 µM): the “cleaved PARP positive nuclei fraction” value stood at 82%.

On to `CC1(C)CCC(c2ccc(Cl)cc2)=C(CN2CCN(c3ccc(C(=O)NS(=O)(=O)c4ccc(N[C@H](CCN5CCOCC5)CSc5ccccc5)c(S(=O)(=O)C(F)(F)F)c4)cc3)CC2)C1` + Cn1sc(=O)n(Cc2ccccc2)c1=O [TDZD-8] (first compound 0.4 µM, partner dose 0.4 µM), for which the “cleaved PARP positive nuclei fraction” value came to 190%.

As for `C[C@]1(O)C[C@@H](c2nc(-c3ccc4ccc(-c5ccccc5)nc4c3)c3c(N)nccn32)C1` + Cc1cc(Nc2cc(N3CCN(C)CC3)nc(/C=C/c3ccccc3)n2)n[nH]1 [ENMD2076] (first compound 0.4 µM, partner dose 0.04 µM), the “cleaved PARP positive nuclei fraction” value came to 45.3%.

Regarding `C[C@@H](N)c1ccc(C(=O)Nc2ccnc3[nH]ccc23)cc1` + CN(C)S(=O)(=O)c1ccc2c(c1)/C(=C/c1cc3c([nH]1)CCCC3)C(=O)N2 [SU6656] (first compound 0.4 µM, partner dose 0.4 µM), the “cleaved PARP positive nuclei fraction” value came out at 58%.

Turning to `NC1(c2ccc(-c3nc4ccn5c(=O)[nH]nc5c4cc3-c3ccccc3)cc2)CCC1` + CN(NC(=O)CC(=O)NN(C)C(=S)c1ccccc1)C(=S)c1ccccc1 [STA4783] (first compound 0.4 µM, partner dose 0.006 µM), the “cleaved PARP positive nuclei fraction” value was found to be 85%.

Consider `Cn1sc(=O)n(Cc2ccccc2)c1=O` + CC(C)(C)c1cnc(CSc2cnc(NC(=O)C3CCNCC3)s2)o1 [SNS-032] (first compound 0.4 µM, partner dose 0.01 µM), for which the “cleaved PARP positive nuclei fraction” value was 74.2%.

As for `Cn1cnc2c(F)c(Nc3ccc(Br)cc3Cl)c(C(=O)NOCCO)cc21` [selumetinib] + COc1cc(N2CCC(N3CCN(C)CC3)CC2)ccc1Nc1ncc(Cl)c(Nc2ccccc2S(=O)(=O)C(C)C)n1 [NVP-TAE684] (first compound 0.015 µM, partner dose 0.08 µM), the “cleaved PARP positive nuclei fraction” value was 71.5%.

As to `Cn1cnc2c(F)c(Nc3ccc(Br)cc3Cl)c(C(=O)NOCCO)cc21` [selumetinib] + O=S(=O)(c1ccccc1)N(CC(F)(F)F)c1ccc(C(O)(C(F)(F)F)C(F)(F)F)cc1 [T0901317] (first compound 0.015 µM, partner dose 1.4 µM), the “cleaved PARP positive nuclei fraction” value was determined as 114%.

Consider `C[C@@H](N)c1ccc(C(=O)Nc2ccnc3[nH]ccc23)cc1` + c1cc(-c2cnn3cc(-c4ccc(OCCN5CCCCC5)cc4)cnc23)ccn1 [Dorsomorphin] (first compound 0.4 µM, partner dose 0.4 µM), for which the “cleaved PARP positive nuclei fraction” value came out at 33.2%.

Take `NC1(c2ccc(-c3nc4ccn5c(=O)[nH]nc5c4cc3-c3ccccc3)cc2)CCC1` + Cn1c(=O)n(-c2ccc(C(C)(C)C#N)cc2)c2c3cc(-c4cnc5ccccc5c4)ccc3ncc21 [NVP-BEZ235] (first compound 0.4 µM, partner dose 0.004 µM): the “cleaved PARP positive nuclei fraction” value stood at 124%.

For `NC(=O)c1ccc(N(C(N)=O)c2c(F)cccc2F)nc1-c1ccc(F)cc1F` + CC(C)(C)c1cnc(CSc2cnc(NC(=O)C3CCNCC3)s2)o1 [SNS-032] (first compound 0.4 µM, partner dose 0.01 µM), the “cleaved PARP positive nuclei fraction” value was 53.5%.

As for `C[C@]1(O)C[C@@H](c2nc(-c3ccc4ccc(-c5ccccc5)nc4c3)c3c(N)nccn32)C1` + CNC(=O)c1cc(Oc2ccc(NC(=O)Nc3ccc(Cl)c(C(F)(F)F)c3)cc2)ccn1 [sorafenib] (first compound 0.4 µM, partner dose 0.4 µM), the “cleaved PARP positive nuclei fraction” value was 86.4%.

For `Cn1sc(=O)n(Cc2ccccc2)c1=O` + CCc1ccc(CCOc2ccc(CC3SC(=O)NC3=O)cc2)nc1 [pioglitazone] (first compound 0.4 µM, partner dose 2 µM), the “cleaved PARP positive nuclei fraction” value amounted to 157%.
